# In PubChem BioAssay AID2685 (National Center for Advancing Translational Sciences (NCATS), 2010):
# Hit rate of the full screen: of about 320,000 compounds, about 2,100 (0.66%) were called active. This list was built around the results that the source calls inconclusive (neither active nor inactive); the mix of calls is not that of the screen. Calls follow the shape of the dose curve; as a rule, active = well fitted inhibition curve with a large enough effect in the signal ratio, with a control signal flat (not every such curve was filed as active); inconclusive = small, poorly fitted or top-dose-only effect, or effect the other way, or a change in a side signal; inactive = flat fitted curve, though single readings scatter; the % refers to the signal ratio. Potencies beside an inconclusive call are fits to weak or partial responses and may not hold up.
# Test: qHTS Assay for Lipid Storage Modulators in Drosophila S3 Cells
# Conditions: BODIPY lipid droplet fluorescence, 18-24 h, cells fed with added oleic acid; lipid storage change, negative = inhibition: at 46.1 µM (top of the series) unless noted
# How it was run: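 Laser-scanning cytometry quantifies lipid droplet accumulation (500–530 nm total intensity; droplet/cell object ratio) in oleic acid-fed (400 uM added) Drosophila S3 cells treated with a concentration series. 20 uM Triacsin C defined 100% inhibition.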
# % is scaled to controls: 0 for no effect and ±100 for the full control effect; potency is read from the fitted curve at half-maximal effect.
Compound,Potency,"lipid storage change, negative = inhibition"
CCCN1CCN(CCCNC(=O)C2CCCN(c3nc4ccc(OCC)cc4s3)C2)CC1 (stereo not drawn),"inconclusive: 18.4 µM [cytotoxic, single point]",–
O=C(OCC(=O)N1CCCC1=O)c1ccc(F)c(S(=O)(=O)N2CCOCC2)c1,"inconclusive: 29.1 µM [activator, single point]",–
O=c1[nH]c(C2CCN(S(=O)(=O)Cc3ccccc3)CC2)nc2c1nnn2Cc1ccccc1Cl,–,inconclusive: -78%
COc1ccc(C(C)=O)cc1COC(=O)c1cc(C)oc1C,–,inactive
O=C(COC(=O)Cc1c(F)cccc1Cl)NCCC1=CCCCC1,–,inconclusive: -18.5%
CC(C)n1cnc2c(Nc3cccc(Cl)c3)nc(NCCCO)nc21,–,inactive
CCN(CC)S(=O)(=O)c1cccc(N=NC2=C(O)CCCC2=O)c1,–,inconclusive: -34.8%
CC(=O)Nc1ccc(S(=O)(=O)N2CCC(C(=O)NCc3ccco3)CC2)cc1,"inconclusive: 25.9 µM [activator, single point]",–
Cc1cc(NC(=O)CSc2nc3cc4c(cc3c(=O)n2CCc2ccccc2)OCO4)no1,"inconclusive: 0.92 µM [activator, full curve]",–
COCC(=O)N1CCC(Oc2ccc(C(=O)NC(C)c3nc(C)sc3C)cc2)CC1 (stereo not drawn),–,inconclusive: 53.2%
Cc1cc(C)n2nc(C(=O)N(C)c3c(N)n(Cc4ccccc4)c(=O)[nH]c3=O)nc2n1,–,inconclusive: -13.7%
CCn1c(=O)cc(OCC(=O)NCCc2ccc(OC)c(OC)c2)c2ccccc21,–,inconclusive: 9.51%
Nc1c(C(=O)Nc2ccccc2)nnn1-c1ccc2c(c1)OCCO2,–,inconclusive: 27.3%
O=C(Nc1ccc(S(=O)(=O)N2CCCC2)cc1)c1ccc(CN2CCOCC2)cc1,–,inactive
COc1ccc(-c2oc(/N=C/N3CCOCC3)c(C#N)c2-c2ccc(OC)cc2)cc1,–,inconclusive: 57.9%
CCOc1ccc(S(=O)(=O)N2CCCC(C(=O)NCc3ccccn3)C2)cc1Cl (stereo not drawn),–,inconclusive: 37.4%
CCC(C)(c1nnnn1-c1c(C)cccc1C)N(N=O)c1cccc(C(F)(F)F)c1 (stereo not drawn),–,inconclusive: -0.867%
CN1C(C(=O)NCc2ccco2)CC2Cn3c(nc4ccccc43)C21 (stereo not drawn),"inconclusive: 29.1 µM [activator, single point]",–
Cc1cccc(OCC(=O)N2CCN(c3nnc(-c4ccccc4)c4ccccc34)CC2)c1,–,inconclusive: 6.23%
CCc1nc(N)c(C#N)c(-c2ccncc2)c1C,"inconclusive: 1.16 µM [activator, single point]",–
CCc1cc(=O)oc2c(C)c(OCC(=O)N3CCCc4ccccc43)ccc12,"inconclusive: 2.06 µM [activator, partial curve]",–
CCCCN1CC(=O)N2[C@H]3c4ccccc4OC[C@@H]3[C@H](c3ccccc3)[C@]2(C)C1=O,–,inconclusive: 11.6%
Cc1c(Cl)cccc1NC(=O)Nn1cnnc1,"inconclusive: 29.1 µM [activator, single point]",–
COc1ccc(CNC(=O)c2cc(C)nc3ccccc23)cc1OC,–,inconclusive: -5.84%

# Fetched one by one from the list above:
Compound,Potency,"lipid storage change, negative = inhibition"
Cc1cc(NC(=O)CSc2nc3cc4c(cc3c(=O)n2CCc2ccccc2)OCO4)no1,"inconclusive: 0.92 µM [activator, full curve]",–
CCn1c(=O)cc(OCC(=O)NCCc2ccc(OC)c(OC)c2)c2ccccc21,–,inconclusive: 9.51%
Cc1cc(C)n2nc(C(=O)N(C)c3c(N)n(Cc4ccccc4)c(=O)[nH]c3=O)nc2n1,–,inconclusive: -13.7%

# Further records follow.

Compound,Potency,"lipid storage change, negative = inhibition"
Cc1nccn1-c1ccc(C=O)cc1,–,inconclusive: -4.89%
CCOC(=O)c1oc2ccccc2c1N,–,inconclusive: 50.9%
Cc1ccc(-c2nc(C#N)c(N3CCC(C(N)=O)CC3)o2)cc1,"inconclusive: 0.58 µM [activator, single point]",–
O=C(Nc1ccccn1)C1CCN(C(=O)Nc2ccccc2)CC1,–,inconclusive: 30.7%
COc1ccc(-c2[nH]n(-c3ccc([N+](=O)[O-])cc3)c(=O)c2C=NCc2ccncc2)cc1,"inconclusive: 29.1 µM [activator, single point]",–
CCCc1nc2c(=O)[nH]c3ccccc3c2o1,–,inconclusive: -15.1%
COc1ccccc1N1CCN(C(=O)CSc2ncnc3c2cnn3-c2ccc(C)c(C)c2)CC1,–,inconclusive: 19.6%
Cc1ccc(C(=O)NC2CCN(CC(=O)Nc3cccc([N+](=O)[O-])c3)CC2)cc1,–,inconclusive: 20%
CC(Sc1nc(-c2ccccc2)cc(C(F)(F)F)n1)C(=O)O (stereo not drawn),–,inconclusive: 17.7%
Cc1ccc(OCC(O)CN2C(=O)NC(C)(C)C2=O)c(C)c1 (stereo not drawn),–,inconclusive: 4.44%
O=C(CCC(=O)Nc1ccc(F)cc1)N/N=C/c1ccc(F)cc1,–,inconclusive: -21.6%
COc1ccc(-n2cc(-c3ccccc3)c3c(=S)nc[nH]c32)cc1,–,inconclusive: 9.54%
O=[N+]([O-])c1ccc(OCCn2cnc3ccccc32)cc1,–,inconclusive: 7.17%
CCOc1cc(/C=N/N=C2/NC(=O)C(CC(=O)O)S2)ccc1OCc1ccc(Cl)cc1 (stereo not drawn),"inconclusive: 0.731 µM [rising, single point]",–
CN(C(=O)COC(=O)c1ccc(=O)n(Cc2ccccc2)n1)C1CCCCC1,"inconclusive: 29.1 µM [activator, single point]",–
CN(Cc1cc(=O)[nH]c2ccccc12)C(=O)c1ccccc1,–,inconclusive: 6.72%
Cc1ccc(S(=O)(=O)Nc2ccccc2CNc2ncc(Br)cc2Br)cc1,–,inconclusive: -9.51%
O=C(O)c1ccc(Nc2nc(-c3ccc([N+](=O)[O-])cc3)nc3ccccc23)cc1,–,inconclusive: 57.5%
CCNc1nc(NC(C)C)nc(NS(=O)(=O)c2ccc(C)cc2)n1,–,inconclusive: -7.71%
CNC(=O)C1CN(C(=O)c2cccc(S(=O)(=O)N3c4ccccc4CC3C)c2)c2ccccc2O1 (stereo not drawn),"inconclusive: 6.51 µM [activator, single point]",–
COc1cccc(CNC(=O)COc2cc(O)c3c(c2)OC(C)(C)CC3=O)c1,–,inconclusive: 8.11%
NS(=O)(=O)c1ccc(NC(=O)COC(=O)CCNC(=O)NC23CC4CC(CC(C4)C2)C3)cc1,"inconclusive: 29.1 µM [falling, single point]",–
COc1ccc(OC)c(NC(=O)Nc2nnc(N3CCC(C)CC3)s2)c1,–,inconclusive: 26.1%
COc1ccc(S(=O)(=O)Cc2ccc(C(=O)NCc3ccc(F)cc3)o2)cc1,"inconclusive: 0.0046 µM [activator, full curve, poor fit]",–
